Results: publication PMC11982326
Results are given in words; binding and its absence hold for the method and conditions named. In cells and extracts the contact can be indirect. Some entries that bind do so weakly or less than the wild type. Tags and fused reporters may be left off the sequences shown.

Target: T1, Flag-tagged eIF5B truncation with the tr-type G domain (UniProt O60841)
T1 sequence: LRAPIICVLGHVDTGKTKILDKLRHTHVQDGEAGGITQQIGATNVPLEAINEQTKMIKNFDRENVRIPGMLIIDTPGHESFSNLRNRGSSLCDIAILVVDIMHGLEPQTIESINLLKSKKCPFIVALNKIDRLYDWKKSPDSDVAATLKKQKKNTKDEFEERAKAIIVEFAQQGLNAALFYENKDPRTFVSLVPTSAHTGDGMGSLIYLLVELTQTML
Assay: co-IP; T24 cells transfected with Flag-tagged eIF5B truncations, immunoprecipitation with anti-Flag, immunoblot with anti-Flag or anti-YTHDF1

B1: YTHDF1 (YTH domain family protein 1) of T24 cells (protein, UniProt Q9BYJ9 1-559)
chain: MSATSVDTQRTKGQDNKVQNGSLHQKDTVHDNDFEPYLTGQSNQSNSYPSMSDPYLSSYYPPSIGFPYSLNEAPWSTAGDPPIPYLTTYGQLSNGDHHFMHDAVFGQPGGLGNNIYQHRFNFFPENPAFSAWGTSGSQGQQTQSSAYGSSYTYPPSSLGGTVVDGQPGFHSDTLSKAPGMNSLEQGMVGLKIGDVSSSAVKTVGSVVSSVALTGVLSGNGGTNVNMPVSKPTSWAAIASKPAKPQPKMKTKSGPVMGGGLPPPPIKHNMDIGTWDNKGPVPKAPVPQQAPSPQAAPQPQQVAQPLPAQPPALAQPQYQSPQQPPQTRWVAPRNRNAAFGQSGGAGSDSNSPGNVQPNSAPSVESHPVLEKLKAAHSYNPKEFEWNLKSGRVFIIKSYSEDDIHRSIKYSIWCSTEHGNKRLDSAFRCMSSKGPVYLLFSVNGSGHFCGVAEMKSPVDYGTSAGVWSQDKWKGKFDVQWIFVKDVPNNQLRHIRLENNDNKPVTNSRDTQEVPLEKAKQVLKIISSYKHTTSIFDDFAHYEKRQEEEEVVRKERQSRNKQ
  binding: binds
